The results in this text go back to article PMC12040169 (PLOS Biology, 2025).

The list shows a part of the results.

This experiment has as its system T1, CTL2-GFP (C. trachomatis L2/434/Bu, GFP-expressing).
T1 construct: L2/434/Bu, GFP-expressing
The arrangement: species or system HeLa; Intracellular C. trachomatis growth in HeLa cells, bulk GFP fluorescence relative to DMSO. As to conditions: bulk GFP, single well; 28.5 h, 10 µM; inhibitor.
For the molecule `C=CCOc1ccccc1CNc1nc[nH]n1` [CBK267234], the “% of control remaining” value is recorded as 97.7988%.
With `COc1cccc(C(=O)Nc2nn(Cc3ccc(C(F)(F)F)cc3)c3ccccc23)c1` [CBK048273] the figure was 88.2334%.
The same measure for `COc1cc(C=CC(=O)O)cc(S(=O)(=O)Nc2ccccc2C(=O)NCCc2ccccc2)c1OC` [CBK297487]: 134.28%; for `Cc1nc(N)sc1-c1nnc(Nc2ccccc2)s1` [CBK267353]: 140.291%; for `CC1CCN(Cc2ccc(-c3ccc(CNC(=O)c4ccc5c(c4)OC(F)(F)O5)s3)cc2)CC1` [CBK166113]: 98.3917%.
`CC1Cc2cc(CC(=O)N(C)CC(F)(F)F)ccc2O1` (stereo not shown) [CBK283067]: the “% of control remaining” value was found to be 83.2864%.
Regarding `COc1ccc(/C=C(\C)C(=O)Nc2ccc(N3CCNCC3)c3ccccc23)cc1OC` [CBK038913T], the “% of control remaining” value amounted to 120.774%.
The same measure for `CCN(CC(O)COc1cc(C)c(Cl)c(C)c1)S(=O)(=O)O` (stereo not shown) [CBK026767N]: 107.655%; for `O=C(c1ccccc1)c1cc[n+](CCC[n+]2ccc(C(=O)c3ccccc3)cc2)cc1` [CBK278270B]: 100.961%; for `Cc1cc(O)n2nc(CC(=O)NCCCn3c(C)cccc3=O)nc2n1` [CBK306532]: 128.115%.
With `CCN(CC)CCOC1CCc2ccccc2CC1` [CBK016730C] the figure was 163.208%; with `CC(C)N(C(=O)c1ccccc1-c1cnc2cccnn12)C(C)C` [CBK306900], 129.54%.
The same measure for `Cc1[nH]c2cc(C(=O)NCCn3nccc3C)ccc2c1C` [CBK283313]: 134.272%; for `CCn1ncc2c1CCCC2NC1CCN(c2ccccc2)C1=O` (stereo not shown) [CBK305144]: 116.869%.
On to `CCN1CCC2(CCC1=O)CN(Cc1noc(CC(C)C)n1)CCN2C` (stereo not shown) [CBK306971], for which the “% of control remaining” value is listed as 70.5489%.
The same measure for `COc1cc(C(C)=O)ccc1OCCCN1CCC(O)(C(=O)c2ccc(F)cc2)CC1` [CBK025271C]: 100%.
With `CCNC(=O)N1CC2(CCN(CCc3cccc4ccccc34)CC2)c2ccccc21` [CBK136965] the figure was 97.0924%; with `Cc1cc(NC(=O)C2CCN(CC3CCCO3)CC2)no1` (stereo not shown) [CBK305544], 123.422%; with `O=C1CC[C@@H](NCc2ccsc2)[C@H](c2cc(F)cc(F)c2)N1` [CBK282910], 104.371%.
With `COCCN(C)C(=O)c1cn2cc(-c3cc(C)oc3C)n(C)c(=O)c2n1` [CBK306605] the figure was 145.864%; with `O=C(Cc1c[nH]c2ccccc12)N1Cc2ccccc2C1` [CBK200321], 98.8356%; with `Cc1ccc(S(=O)(=O)NC(C)(C)CSc2nnc(N)s2)cc1` [CBK266350], 133.079%.
As for `Cn1c(CN2CCN(c3ccc(C#N)cc3)CC2)nnc1[C@H]1C[C@@H](N)C1` [CBK306985], the “% of control remaining” value was determined as 94.8681%.
Consider `O=C(C1CC1)N1CC(n2nc(-c3cccs3)ccc2=O)C1` [CBK284650], for which the “% of control remaining” value is recorded as 101.76%.
The same measure for `CSCCN1CCC(C(=O)c2ccc(F)cc2)CC1` [CBK149145]: 130.463%; for `CN1C(=O)/C(=C2\SC(=S)N(C(CCC(=O)O)C(=O)O)C2=O)c2ccccc21` (stereo not shown) [CBK261010]: 114.106%; for `O=C(c1cnc2cc(Cl)ccc2c1O)N1CCN(c2ncccn2)CC1` [CBK107358]: 159.06%.
For `O=C1CC2(CCN(C(=O)C3CCOC3)CC2)Oc2c(Br)cc(Br)cc21` (stereo not shown) [CBK156512], the “% of control remaining” value worked out at 116.781%.
With `CCOc1ccc(Nc2nc(-c3ccc(C)cc3C)c(CC(=O)O)s2)cc1` [CBK264187] the figure was 91.633%; with `Cc1cc(C)c(OCC(=O)Nc2cccc(-c3nc4cc(C(C)C)ccc4o3)c2)c([N+](=O)[O-])c1` [CBK264680], 104.565%; with `COC(=O)[C@H]1CN(C(=O)Cc2ccccn2)C[C@@H]1c1ccc(F)cc1` [CBK283519], 140.908%.
The same measure for `CC(C)[C@@H](CO)Nc1nc(-c2cccnc2)cn2ccnc12` [CBK037539]: 106.502%.
Turning to `CN(C)CCC1CCCCN1C(=O)[C@@H]1C[C@@H]2C=C[C@H]1C2` (stereo partly shown) [CBK282054], the “% of control remaining” value is listed as 123.739%.
The same measure for `O=C(Nc1c(F)cc(F)cc1OC1CCNCC1)c1ccccn1` [CBK050274T]: 101.35%.
As for `COc1ccc(NC(=O)CSc2cnn[nH]2)c(OC)c1` [CBK269969], the “% of control remaining” value is listed as 137.076%.
The same measure for `CC(C)(C)OC(=O)N[C@@H](Cc1ccccc1)CN(Cc1ccccc1)Cc1ccc(S(=O)(=O)N2CCOC2=O)cc1` [CBK028952]: 91.8682%; for `OC1(C(F)(F)F)C=C(c2cccs2)ON1` (stereo not shown) [CBK006243]: 139.068%.
For the molecule `O=C(Nc1ccc(S(=O)(=O)Nc2cncs2)cc1)c1ccc(-c2cccc(C(F)(F)F)c2)o1` [CBK266625], the “% of control remaining” value worked out at 43.4731%.
On to `CC(=O)N1Cc2cc(C)ccc2OC2(CCN(CC3CC3)CC2)C1` [CBK285021], for which the “% of control remaining” value was determined as 119.039%.
With `O=C(CSC1=NCCS1)Nc1ccc(Cl)cn1` [CBK057917] the figure was 155.869%; with `CC(C)C(C(=O)Nc1ccc(S(=O)(=O)N2CCOCC2)cc1)N1C(=O)c2ccccc2C1=O` (stereo not shown) [CBK265607], 113.078%; with `CN1CCN(C(=O)c2ccc(-c3cnc4[nH]c(=O)n(Cc5ccncc5)c4n3)cc2)CC1` [CBK064679], 229.224%.
The same measure for `CCOCCCC(=O)N1CCN(Cc2nnc3n2CCCCC3)CC1` [CBK305298]: 118.899%; for `CCN1CCN(C(=O)COc2cccnc2)CC1` [CBK200378]: 142.695%.
Consider `CC(C)c1ccc(NC(=O)CSc2n[nH]c(=O)n2-c2ccccc2)cc1` [CBK299826], for which the “% of control remaining” value is 159.708%.
As for `Clc1ccccc1-c1nccnc1NCc1ccncc1` [CBK037472], the “% of control remaining” value stood at 164.188%.
Regarding `COC1CCC(C(=O)Nc2cnc(-c3ccc(F)c(Cl)c3)c(-c3ccc(C(C)=O)s3)n2)CC1` (stereo not shown) [CBK036718], the “% of control remaining” value is 169.217%.
The same measure for `CCn1c2cc(C)sc2c2cnn(CC(=O)N(C)C)c(=O)c21` [CBK284173]: 112.218%; for `O=C(Cn1nc2n(c1=O)CCCCC2)NCc1ccccc1Cl` [CBK304642]: 136.698%.
